Test results as given in the supplement of paper PMC9744312.
Counter-ions that a name gives are not always drawn. The list shows a part of the results. Single values of this set are uncertain.

Each compound was assayed on Peyronie's disease tunica albuginea primary fibroblasts (assay: cell viability (DRAQ5 nuclear stain) relative to TGF-beta1-only control; higher = more viable cells). Conditions: 10 µM; TGF-beta1 10 ng/mL; 72 h.

SMILES	cell viability [%]
O=C1Cc2cc(CCN3CCN(c4nsc5ccccc45)CC3)c(Cl)cc2N1 [Ziprasidone HCl]	57.8
CC(C)/N=c1\cc2n(-c3ccc(Cl)cc3)c3ccccc3nc-2cc1Nc1ccc(Cl)cc1 [Clofazimine]	88.5
CC(C)(C(=O)c1cccnc1)c1cccnc1 [Metyrapone]	99.7
Nc1ncn([C@H]2C[C@H](O)[C@@H](CO)O2)c(=O)n1 [Decitabine]	66.1
CS(=O)(=O)CCNCc1ccc(-c2ccc3ncnc(Nc4ccc(OCc5cccc(F)c5)c(Cl)c4)c3c2)o1 [Lapatinib ditosylate monohydrate]	89.6
CS(=O)(=O)CCNCc1ccc(-c2ccc3ncnc(Nc4ccc(OCc5cccc(F)c5)c(Cl)c4)c3c2)o1	93.2
CS(=O)(=O)CCNCc1ccc(-c2ccc3ncnc(Nc4ccc(OCc5cccc(F)c5)c(Cl)c4)c3c2)o1 [Lapatinib]	89.7
C=CC(=O)Nc1cccc(Nc2nc(Nc3ccc(N4CCN(C(C)=O)CC4)cc3OC)ncc2C(F)(F)F)c1 [Rociletinib (CO-1686, AVL-301)]	55.9
Nc1c(Br)cc(Br)cc1CN[C@H]1CC[C@H](O)CC1 [Ambroxol]	79.9
Nc1c(Br)cc(Br)cc1CN[C@H]1CC[C@H](O)CC1 [Ambroxol HCl]	94.2
Oc1ccc(Cl)c2cccnc12 [Cloxiquine]	64.9
Cn1ccnc1S [Methimazole]	95.6
CC(C)(Sc1cc(C(C)(C)C)c(O)c(C(C)(C)C)c1)Sc1cc(C(C)(C)C)c(O)c(C(C)(C)C)c1 [Probucol]	93.3
COc1ccccc1N1CCN(CC(O)COc2cccc3ccccc23)CC1 (stereo not drawn) [Naftopidil DiHCl]	101
COc1ccccc1N1CCN(CC(O)COc2cccc3ccccc23)CC1 (stereo not drawn) [Naftopidil]	90.2
CN1CCC(=C2c3ccccc3CC(=O)c3sccc32)CC1 [Ketotifen Fumarate]	93
COC(=O)c1ccccc1O [Methyl salicylate]	93
N#CC(c1ccc(Cl)cc1)c1c(Cl)cc(-n2ncc(=O)[nH]c2=O)cc1Cl (stereo not drawn) [Diclazuril]	92.5
OCc1cc([C@@H](O)CNCCCCCCOCCOCc2c(Cl)cccc2Cl)ccc1O [Vilanterol Trifenate]	86.9
O.O.O.O.O=C([O-])CC(O)(CC(=O)[O-])C(=O)[O-].[Li+].[Li+].[Li+] [Citric acid trilithium salt tetrahydrate]	92.9
COc1cc(OC)c(C(=O)CCCN2CCCC2)c(OC)c1 [Buflomedil HCl]	85
CC(C)(C)C(=O)OCOP(=O)(COCCn1cnc2c(N)ncnc21)OCOC(=O)C(C)(C)C [Adefovir Dipivoxil]	71.7
CCOc1ccc(Cc2cc([C@@H]3O[C@H](SC)[C@@H](O)[C@H](O)[C@H]3O)ccc2Cl)cc1 [Sotagliflozin (LX4211)]	89.3
Cc1ccc(NC(=O)c2ccc(CN3CC[C@H](N(C)C)C3)c(C(F)(F)F)c2)cc1Nc1nccc(-c2cncnc2)n1 [Bafetinib (INNO-406)]	69.9
CC(C)(S)[C@@H](N)C(=O)O [Penicillamine]	88

Quoted at random: four entries already listed, in no set order.
SMILES	cell viability [%]
Oc1ccc(Cl)c2cccnc12 [Cloxiquine]	64.9
CCOc1ccc(Cc2cc([C@@H]3O[C@H](SC)[C@@H](O)[C@H](O)[C@H]3O)ccc2Cl)cc1 [Sotagliflozin (LX4211)]	89.3
Cc1ccc(NC(=O)c2ccc(CN3CC[C@H](N(C)C)C3)c(C(F)(F)F)c2)cc1Nc1nccc(-c2cncnc2)n1 [Bafetinib (INNO-406)]	69.9
COc1cc(OC)c(C(=O)CCCN2CCCC2)c(OC)c1 [Buflomedil HCl]	85

Next part.

SMILES	cell viability [%]
CCCCCCCCCCC[C@@H](C[C@@H]1OC(=O)[C@H]1CCCCCC)OC(=O)[C@H](CC(C)C)NC=O [Orlistat]	88
CC1(C)CCC(CN2CCN(c3ccc(C(=O)NS(=O)(=O)c4ccc(NCC5CCOCC5)c([N+](=O)[O-])c4)c(Oc4cnc5[nH]ccc5c4)c3)CC2)=C(c2ccc(Cl)cc2)C1 [Venetoclax (ABT-199, GDC-0199)]	90.5
O=NO [Sodium Nitrite]	87.8
CC(=O)NO [Acetohydroxamic acid]	94.1
CC(=O)N[C@@H](CCC(N)=O)C(=O)O [Aceglutamide]	50.9
CC(C)(Oc1ccc(Cl)cc1)C(=O)O [Clofibric Acid]	92.6
CC(=O)[C@@]1(O)CC[C@H]2[C@@H]3CCC4=CC(=O)CCC4=C3[C@@H](c3ccc(N(C)C)cc3)C[C@@]21C [Ulipristal]	89.1
COc1ccc(CCNCC(O)COc2cccc(C)c2)cc1OC (stereo not drawn) [Bevantolol hydrochloride]	88.2
C[C@]12CC[C@@H]3c4ccc(OS(=O)(=O)O)cc4CC[C@H]3[C@@H]1CCC2=O [Estropipate]	103
CN1CCN(c2c(F)cc3c(=O)c(C(=O)O)cn4c3c2OCN4C)CC1 [Marbofloxacin]	88.4
CC(C)(C)CC(C)(C)c1ccc(O)c(Cc2ccc(Cl)cc2Cl)c1 [Clofoctol]	92.3
CCN(CC)CCOC(=O)C(c1ccccc1)c1ccccc1 [Adiphenine HCl]	93.3
OC(CCCN1CCCCC1)(c1ccccc1)c1ccccc1 [Diphenidol HCl]	93.8
CCOC(=O)c1ccc(N)cc1 [Benzocaine]	90.2
CCOC(=O)c1ccc(N)cc1 [Benzocaine hydrochloride]	89.5
Nc1nc(NC2CC2)c2ncn([C@H]3C=C[C@@H](CO)C3)c2n1 [Abacavir]	91.5
Nc1nc(NC2CC2)c2ncn([C@H]3C=C[C@@H](CO)C3)c2n1 [Abacavir sulfate]	82.7
O=C(O)CCCC[C@@H]1CCSS1 (racemic) [Thioctic acid]	96.1
CN(Cc1cnc2nc(N)nc(N)c2n1)c1ccc(C(=O)N[C@@H](CCC(=O)O)C(=O)O)cc1 [Methotrexate]	97.6
CN(Cc1cnc2nc(N)nc(N)c2n1)c1ccc(C(=O)N[C@@H](CCC(=O)O)C(=O)O)cc1 [Methotrexate disodium]	87
CCOc1ccc2nc3cc(N)ccc3c(N)c2c1 [Ethacridine lactate monohydrate]	66.4
CSCCNc1nc(SCCC(F)(F)F)nc2c1ncn2[C@@H]1O[C@H](COP(=O)(O)OP(=O)(O)C(Cl)(Cl)P(=O)(O)O)[C@@H](O)[C@H]1O [Cangrelor Tetrasodium]	80
CN(C)c1ccc(O)c2c1C[C@H]1C[C@H]3[C@H](N(C)C)C(O)=C(C(N)=O)C(=O)[C@@]3(O)C(O)=C1C2=O [Minocycline HCl]	82.1
CCCCCCCCCCCCCCCCOP(=O)([O-])OCC[N+](C)(C)C [Miltefosine]	84.7
C[N+](C)(C)CCOC(=O)CCC(=O)OCC[N+](C)(C)C [Succinylcholine Chloride Dihydrate]	97.2

Reformatted as a markdown table: entries from further up

| SMILES | cell viability [%] |
| --- | --- |
| CCCCCCCCCCCCCCCCOP(=O)([O-])OCC[N+](C)(C)C [Miltefosine] | 84.7 |
| C[N+](C)(C)CCOC(=O)CCC(=O)OCC[N+](C)(C)C [Succinylcholine Chloride Dihydrate] | 97.2 |

(listing goes on)

SMILES	cell viability [%]
CCCCCCCCCCCCCCCCOc1nc2ccc(C)cc2c(=O)o1 [Cetilistat]	95.9
CN(C)[C@@H]1C(O)=C(C(N)=O)C(=O)[C@@]2(O)C(O)=C3C(=O)c4c(O)cccc4[C@@](C)(O)[C@H]3[C@H](O)[C@@H]12 [Oxytetracycline (Terramycin)]	84.7
CN(C)[C@@H]1C(O)=C(C(N)=O)C(=O)[C@@]2(O)C(O)=C3C(=O)c4c(O)cccc4[C@@](C)(O)[C@H]3[C@H](O)[C@@H]12 [Oxytetracycline Dihydrate]	94.6
COc1cc(OC)c(/C=C/S(=O)(=O)Cc2ccc(OC)c(NCC(=O)O)c2)c(OC)c1	80.3
CSc1ccc2c(c1)N(CCC1CCCCN1C)c1ccccc1S2 (stereo not drawn) [Thioridazine hydrochloride]	67.1
CC/C(=C(/CC)c1ccc(O)cc1)c1ccc(O)cc1 [Diethylstilbestrol]	88.5
CC1=C(/C=C/C(C)=C/C=C/C(C)=C\C(=O)O)C(C)(C)CCC1 [Isotretinoin]	86.9
NC(N)=Nc1nc(CSCC/C(N)=N/S(N)(=O)=O)cs1 [Famotidine]	94.8
Cc1cc(-c2ccccc2)nnc1NCCN1CCOCC1 [Minaprine dihydrochloride]	36.5
COc1cc(NC(C)CCCN)c2ncccc2c1 (stereo not drawn) [Primaquine Diphosphate]	72.2
CC(=O)CC/C=C(\C)CC/C=C(\C)CC/C=C(\C)CCC=C(C)C [Teprenone]	99.1
C=C1/C(=C\C=C2/CCC[C@]3(C)[C@@H]([C@H](C)/C=C/[C@H](C)C(C)C)CC[C@@H]23)C[C@@H](O)C[C@@H]1O [Doxercalciferol]	68.4
CCCCN1CCCCC1C(=O)Nc1c(C)cccc1C (stereo not drawn) [Bupivacaine HCl]	94.1
CO/N=C1\C[C@]2(C[C@@H]3C[C@@H](C/C=C(\C)C[C@@H](C)/C=C/C=C4\CO[C@@H]5[C@H](O)C(C)=C[C@@H](C(=O)O3)[C@]45O)O2)O[C@H](/C(C)=C/C(C)C)[C@H]1C [Moxidectin]	80.6
CCN(CCO)CCCC(C)Nc1ccnc2cc(Cl)ccc12 (stereo not drawn) [Hydroxychloroquine Sulfate]	86.9
Cc1nc(Nc2ncc(C(=O)Nc3c(C)cccc3Cl)s2)cc(N2CCN(CCO)CC2)n1 [Dasatinib]	61
Cc1nc(Nc2ncc(C(=O)Nc3c(C)cccc3Cl)s2)cc(N2CCN(CCO)CC2)n1 [Dasatinib Monohydrate]	49.6
Cc1nc(Nc2ncc(C(=O)Nc3c(C)cccc3Cl)s2)cc(N2CCN(CCO)CC2)n1 [Dasatinib hydrochloride]	41
Cc1nc(-c2ccc(OCC(C)C)c(C#N)c2)sc1C(=O)O [Febuxostat]	65.7
C[C@@H](O)[C@H]1C(=O)N2C(C(=O)[O-])=C(SC3Cn4cnc[n+]4C3)[C@H](C)[C@H]12 (stereo partly drawn) [Biapenem]	95
CC(C(=O)O)c1ccc2c(c1)CC(=O)c1ccccc1S2 (stereo not drawn) [Zaltoprofen]	89.9
CN(C)c1ccc(C(=C2C=CC(=[N+](C)C)C=C2)c2ccc(N(C)C)cc2)cc1 [Crystal Violet]	50.8
CC(=O)[C@H]1CC[C@H]2[C@@H]3CC=C4C[C@@H](O)CC[C@]4(C)[C@H]3CC[C@]12C [Pregnenolone]	86.7
